PubChem BioAssay AID504764, Drosophila RNAi Screening Center – 2011

Assay: 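Genes whose knock-down alters Notch-dependent transcription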 (primary screen)
Cells: Drosophila Kc167 cells
Reagents: long dsRNA against Drosophila genes
Duration: about 5 days (4 days dsRNA, then 24 h after transfection)
Challenge: transfection of constitutively active membrane-tethered Notch lacking the extracellular domain, read 24 h later
Measurement: 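Light from a Notch-responsive E(spl)m3 luciferase reporter under active Notch, with control-promoter and no-Notch reporter wells to normalise; raw counts from paired wells a and b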
Reading the numbers: induced reporter light, run 1, well a and induced reporter light, run 1, well b: higher = more light from the Notch target reporter with active Notch; control promoter light, run 1, well a and control promoter light, run 1, well b: higher = more light from the viral control promoter (cell number, transfection, viability); uninduced reporter light, run 1, well a: higher = more light from the Notch target reporter without active Notch
Hit rule: 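Hit if the duplicate-averaged log2 ratio of induced to control-promoter light gives a plate-wise z beyond ±2, or induced to uninduced beyond ±1.8; weak-control or discordant-duplicate wells dropped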
Meaning of the calls: active = modifier hit (raised or lowered Notch signal); inactive = not a hit
The screen tested about 22,000 reagents; shown is a random part of those that have a named target and a result. In the full data, 403 (1.9%) were called active. 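Unnormalised raw counts per well; ratio z-scores behind the hit calls and whether each hit raises or lowers signal are not deposited.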 Names joined by + are all predicted targets of the reagent. No sequences are given here. Not stated in the record: the amount of reagent.

Against Mrtf [DRSC08263], the values are induced reporter light, run 1, well a = 11155; induced reporter light, run 1, well b = 12178; control promoter light, run 1, well a = 22045; control promoter light, run 1, well b = 22900; uninduced reporter light, run 1, well a = 3990; inactive.
Mrtf [DRSC08410] gave induced reporter light, run 1, well a = 60025; induced reporter light, run 1, well b = 47050; control promoter light, run 1, well a = 56280; control promoter light, run 1, well b = 62925; uninduced reporter light, run 1, well a = 4795; inactive.
After knock-down of Mrtf [DRSC08411] the results were induced reporter light, run 1, well a = 1.08e5; induced reporter light, run 1, well b = 1.04e5; control promoter light, run 1, well a = 1.77e5; control promoter light, run 1, well b = 1.62e5; uninduced reporter light, run 1, well a = 5455; inactive.
Against sp3 [DRSC16354], the values are induced reporter light, run 1, well a = 2.36e5; induced reporter light, run 1, well b = 1.53e5; control promoter light, run 1, well a = 2.03e5; control promoter light, run 1, well b = 1.93e5; uninduced reporter light, run 1, well a = 11585; inactive.
With knock-down of Fkbp59 [DRSC03323] the results were induced reporter light, run 1, well a = 1.31e5; induced reporter light, run 1, well b = 1.60e5; control promoter light, run 1, well a = 78350; control promoter light, run 1, well b = 1.10e5; uninduced reporter light, run 1, well a = 17738; inactive.
For eIF4EHP [DRSC13653], the values are induced reporter light, run 1, well a = 2.22e5; induced reporter light, run 1, well b = 2.38e5; control promoter light, run 1, well a = 1.95e5; control promoter light, run 1, well b = 2.08e5; uninduced reporter light, run 1, well a = 18682; inactive.
Knock-down of eIF4EHP [DRSC14265] came out at: induced reporter light, run 1, well a = 1.84e5; induced reporter light, run 1, well b = 1.36e5; control promoter light, run 1, well a = 1.87e5; control promoter light, run 1, well b = 2.21e5; uninduced reporter light, run 1, well a = 13660; inactive.
CG15152 [DRSC02453] showed induced reporter light, run 1, well a = 1.26e5; induced reporter light, run 1, well b = 1.39e5; control promoter light, run 1, well a = 1.50e5; control promoter light, run 1, well b = 1.72e5; uninduced reporter light, run 1, well a = 10725; inactive.
Irk2 [DRSC15569] scored induced reporter light, run 1, well a = 1.42e5; induced reporter light, run 1, well b = 1.47e5; control promoter light, run 1, well a = 1.87e5; control promoter light, run 1, well b = 2.09e5; uninduced reporter light, run 1, well a = 14338; inactive.
4E-T [DRSC17201] gave induced reporter light, run 1, well a = 1.31e5; induced reporter light, run 1, well b = 1.48e5; control promoter light, run 1, well a = 1.70e5; control promoter light, run 1, well b = 1.68e5; uninduced reporter light, run 1, well a = 10855; inactive.
4E-T [DRSC17208] gave induced reporter light, run 1, well a = 91940; induced reporter light, run 1, well b = 1.08e5; control promoter light, run 1, well a = 1.81e5; control promoter light, run 1, well b = 1.58e5; uninduced reporter light, run 1, well a = 8940; inactive.
Against Ack [DRSC08135], the entry reads induced reporter light, run 1, well a = 1.20e5; induced reporter light, run 1, well b = 1.36e5; control promoter light, run 1, well a = 1.90e5; control promoter light, run 1, well b = 1.43e5; uninduced reporter light, run 1, well a = 6305; inactive.
For l(2)37Cb [DRSC02095], the entry reads induced reporter light, run 1, well a = 1.43e5; induced reporter light, run 1, well b = 1.73e5; control promoter light, run 1, well a = 1.54e5; control promoter light, run 1, well b = 1.51e5; uninduced reporter light, run 1, well a = 9515; inactive.
Depletion of Pp2B-14D [DRSC20270] came out at: induced reporter light, run 1, well a = 58185; induced reporter light, run 1, well b = 39770; control promoter light, run 1, well a = 54545; control promoter light, run 1, well b = 43465; uninduced reporter light, run 1, well a = 8770; inactive.
Depletion of CG8132 [DRSC16383] gave: induced reporter light, run 1, well a = 60740; induced reporter light, run 1, well b = 82690; control promoter light, run 1, well a = 79550; control promoter light, run 1, well b = 41360; uninduced reporter light, run 1, well a = 4020; inactive.
With knock-down of fipi [DRSC00465], the record shows induced reporter light, run 1, well a = 63820; induced reporter light, run 1, well b = 63355; control promoter light, run 1, well a = 65085; control promoter light, run 1, well b = 68125; uninduced reporter light, run 1, well a = 3795; inactive.
CG8366 [DRSC07153] scored induced reporter light, run 1, well a = 1.02e5; induced reporter light, run 1, well b = 1.08e5; control promoter light, run 1, well a = 1.13e5; control promoter light, run 1, well b = 1.52e5; uninduced reporter light, run 1, well a = 9945; inactive.
For CG11379 [DRSC18629], the values are induced reporter light, run 1, well a = 1.23e5; induced reporter light, run 1, well b = 1.10e5; control promoter light, run 1, well a = 2.32e5; control promoter light, run 1, well b = 2.57e5; uninduced reporter light, run 1, well a = 8885; inactive.
Depletion of Aatf [DRSC02131] came out at: induced reporter light, run 1, well a = 1.27e5; induced reporter light, run 1, well b = 92155; control promoter light, run 1, well a = 1.32e5; control promoter light, run 1, well b = 1.14e5; uninduced reporter light, run 1, well a = 7115; inactive.
With knock-down of ppl [DRSC11899], the record shows induced reporter light, run 1, well a = 1.27e5; induced reporter light, run 1, well b = 1.11e5; control promoter light, run 1, well a = 82555; control promoter light, run 1, well b = 98565; uninduced reporter light, run 1, well a = 9460; inactive.
With knock-down of CG2120 [DRSC18207], the screen gave induced reporter light, run 1, well a = 1.08e5; induced reporter light, run 1, well b = 1.26e5; control promoter light, run 1, well a = 2.86e5; control promoter light, run 1, well b = 1.93e5; uninduced reporter light, run 1, well a = 10140; inactive.
Against Mvk + CG33672 + spt4 [DRSC05356] the deposit lists induced reporter light, run 1, well a = 2.24e5; induced reporter light, run 1, well b = 2.18e5; control promoter light, run 1, well a = 2.23e5; control promoter light, run 1, well b = 2.33e5; uninduced reporter light, run 1, well a = 18090; inactive.
Mvk + CG33672 + spt4 [DRSC06628] gave induced reporter light, run 1, well a = 1.79e5; induced reporter light, run 1, well b = 1.61e5; control promoter light, run 1, well a = 1.80e5; control promoter light, run 1, well b = 1.81e5; uninduced reporter light, run 1, well a = 17790; inactive.
Depletion of pit [DRSC17025] resulted in: induced reporter light, run 1, well a = 1.77e5; induced reporter light, run 1, well b = 2.07e5; control promoter light, run 1, well a = 2.06e5; control promoter light, run 1, well b = 1.99e5; uninduced reporter light, run 1, well a = 10915; inactive.

Entries listed so far whose target name begins with E or e (2):
eIF4EHP [DRSC13653] → induced reporter light, run 1, well a: 2.22e5; induced reporter light, run 1, well b: 2.38e5; control promoter light, run 1, well a: 1.95e5; control promoter light, run 1, well b: 2.08e5; uninduced reporter light, run 1, well a: 18682; Outcome: inactive
eIF4EHP [DRSC14265] → induced reporter light, run 1, well a: 1.84e5; induced reporter light, run 1, well b: 1.36e5; control promoter light, run 1, well a: 1.87e5; control promoter light, run 1, well b: 2.21e5; uninduced reporter light, run 1, well a: 13660; Outcome: inactive
